No constants are given. Whether binding was seen depends on the method and setting. Some entries that bind do so weakly or less than the wild type.
Target: T1, JAM-a (antigen of the binding assays of Example 11; form not stated) (UniProt Q9Y624)
T1 sequence (looked up): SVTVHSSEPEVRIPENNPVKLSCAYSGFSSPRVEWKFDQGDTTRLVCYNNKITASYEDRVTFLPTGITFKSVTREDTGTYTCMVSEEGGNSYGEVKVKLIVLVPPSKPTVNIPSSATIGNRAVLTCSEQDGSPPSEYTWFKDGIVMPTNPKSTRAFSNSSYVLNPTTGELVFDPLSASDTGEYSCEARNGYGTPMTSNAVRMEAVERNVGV
Experiment: ELISA, data not shown

B1: recombinant chimeric 6F4 antibody (antibody, V domains shown)
VH: EIQLQQSGPELVKPGASVKVSCKASGYSFTDYSMYWVKQSHGKSLEWIGYIDPYNGGTRYNQKFKGKATLTVDKSSSTAFMHLNSLTSEDSAVYYCARQTDYFDYWGQGTTLTVSS
VL: DIQMTQSPSSLSASLGGKVTITCKASQDINNYIAWYQHKPGKGPRLLIHYTSTLQAGIPSRFSGSGSGRDYSFSISNLEPEDIGTYYCLQYDNLWTFGGGTKLEIK
B1 was tested, and the binding was “binds”.

— patent publication US20100092455A1 (PIERRE FABRE MEDICAMENT, published 2010)
